In patent US20080213297 (published 2008):

Assay: general procedure: Fmoc solid-phase peptide synthesis; 2-Chlorotrityl-resin
Settings: conjugation step

“{5-[({5-[2-(2-Acetylamino-propionylamino)-3-phenyl-propionylamino]-5-carbamoyl-pentylcarbamoyl}-methyl)-carbamoyl]-5-[5-(4-formyl-3-hydroxy-phenoxy)-pentanoylamino]-pentyl}-trimethyl-ammonium 22” showed a conjugation yield of 28%.
